Results: publication PMC2614481

Amino acid sequences for entries named in this document (tags omitted).
UniProt Q12432: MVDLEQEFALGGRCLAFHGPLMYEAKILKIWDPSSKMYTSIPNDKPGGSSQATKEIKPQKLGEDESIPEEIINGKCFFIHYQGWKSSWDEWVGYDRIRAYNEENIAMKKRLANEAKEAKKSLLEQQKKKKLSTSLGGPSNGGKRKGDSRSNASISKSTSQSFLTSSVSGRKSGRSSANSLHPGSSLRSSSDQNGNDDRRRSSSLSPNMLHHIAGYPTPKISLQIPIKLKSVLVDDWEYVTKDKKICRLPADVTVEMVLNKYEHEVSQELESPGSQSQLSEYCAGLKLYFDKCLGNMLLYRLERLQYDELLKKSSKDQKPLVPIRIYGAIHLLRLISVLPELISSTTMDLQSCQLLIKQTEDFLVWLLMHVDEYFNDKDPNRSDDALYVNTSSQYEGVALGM

Biological target: T1, Sc_Rpd3p (S. cerevisiae) (UniProt P32561)
T1 sequence: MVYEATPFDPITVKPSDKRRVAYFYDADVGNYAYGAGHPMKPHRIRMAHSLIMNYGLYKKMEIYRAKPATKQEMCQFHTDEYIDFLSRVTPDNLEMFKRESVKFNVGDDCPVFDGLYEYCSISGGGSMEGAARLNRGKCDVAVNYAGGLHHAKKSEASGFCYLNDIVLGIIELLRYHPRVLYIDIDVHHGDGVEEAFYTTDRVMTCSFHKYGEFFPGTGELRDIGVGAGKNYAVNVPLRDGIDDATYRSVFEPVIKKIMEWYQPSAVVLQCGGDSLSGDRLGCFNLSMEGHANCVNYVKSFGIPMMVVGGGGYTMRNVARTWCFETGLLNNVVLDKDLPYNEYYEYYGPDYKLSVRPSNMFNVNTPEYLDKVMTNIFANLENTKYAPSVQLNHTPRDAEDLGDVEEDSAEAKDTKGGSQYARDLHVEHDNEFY
Experiment: affinity purification with mass spectrometry; TAP of baits TAP-tagged at their genes from S. cerevisiae extracts; eluates on 6-18% gels, Coomassie, bands and slices identified by MALDI peptide mapping and LC-MS/MS; common background removed, A-index cut-off 1.75

binding: binds
Substance: Sc_Eaf3p (from UniProt Q12432 1-401)

No constants are given. Whether binding was seen depends on the method and setting. In cells and extracts the contact can be indirect. A yes stands for co-enrichment or nearness to the bait. Other partners may have been found.
